Some of the results follow. Repeats in this data set agree poorly, so a single value says little.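 The human kidney-derived cells carry a stably integrated construct of eight TEAD-binding elements driving luciferase, read by luminescence in a drug-repurposing library screen. A compound counts as a hit when its signal is more than five robust Z scores above the plate mean.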
System: HEK293A TEAD-LUC reporter
Assay: TEAD-luciferase reporter activity (YAP activation), robust Z score vs plate; higher = stronger YAP/TEAD activation
Settings: 24 h

SMILES | TEAD-luciferase reporter activity (compound concentration: 200 nM) | TEAD-luciferase reporter activity (compound concentration: 2 uM) | TEAD-luciferase reporter activity (compound concentration: 10 uM)
COC(=O)C(N)Cc1ccc(O)c(O)c1 (centres undefined) [levodopa, Dizlin Medical Design] | inactive: -0.94 | inactive: 0.402 | inactive: -0.545
CCCCCCCC/C=C\CCCCCCCC(=O)O[C@H]1C[C@H](n2cc(F)c(=O)[nH]c2=O)O[C@@H]1COP(=O)([O-])OCC[N+](C)(C)C | inactive: -1.56 | inactive: 0.706 | inactive: 0.502
O=S(=O)(O)c1ccc2[nH]c(-c3ccccc3)nc2c1 | inactive: 2.25 | inactive: -0.123 | inactive: -1.49
CCN(CC)C(=O)CNC(=O)c1cc(OC)c(OC)c(OC)c1 | inactive: 2.08 | – | inactive: 1.02
CCOC(=O)Cc1c2n(c3c(F)cccc13)CC(OS(C)(=O)=O)CC2 (centres undefined) | inactive: -0.579 | inactive: -0.0895 | inactive: 3.25
CSc1cc(C)nc(SC)c1NC(=O)CN1CCN(CCSc2nc3ccccc3[nH]2)CC1 | inactive: -0.911 | inactive: -1.37 | inactive: -1.66
CCOC(=O)C(=O)Nc1nc(-c2ccc(OC)cc2)cs1 [Tioxamast] | inactive: 0.382 | inactive: -0.568 | inactive: -0.265
Nc1ccccc1NC(=O)c1ccc(CNc2nccc(-c3cccnc3)n2)cc1 [mocetinostat] | – | active: 47.6 | –
Nc1ccccc1NC(=O)c1ccc(CNc2nccc(-c3cccnc3)n2)cc1 [Mocetinostat (MGCD0103)] | inactive: 3 | – | active: 49.7
Cc1nc2ccccn2c(=O)c1CCN1CCc2oc3ccccc3c2C1 | inactive: -0.0979 | inactive: 0.134 | inactive: -0.435
COc1ccc([C@@H]2CC(=O)c3c(O)cc(O[C@@H]4O[C@H](CO[C@@H]5O[C@@H](C)[C@H](O)[C@@H](O)[C@H]5O)[C@@H](O)[C@H](O)[C@H]4O)cc3O2)cc1O | inactive: -0.91 | – | inactive: -0.364
COc1ccc([C@@H]2CC(=O)c3c(O)cc(O[C@@H]4O[C@H](CO[C@@H]5O[C@@H](C)[C@H](O)[C@@H](O)[C@H]5O)[C@@H](O)[C@H](O)[C@H]4O)cc3O2)cc1O [Hesperidin] | – | inactive: -1.63 | –
O=C(O)Cc1nn(-c2ccc(F)cc2)cc1-c1ccc(Cl)cc1 [pirazolac] | inactive: -0.374 | inactive: -0.332 | inactive: 1.01
C[C@@H](Oc1ccc(CNC(=O)c2cccnc2Oc2ccc3c(c2)OCO3)c(F)c1)C(=O)O | inactive: 0.739 | inactive: -0.411 | inactive: -1.55
CC(=O)c1cc(N)ccc1N1CCC(C)CC1 | inactive: -0.852 | inactive: -0.265 | inactive: -0.0565
CC(=O)NC[C@H]1CN(c2ccc(-c3ccc(CNCCCF)cc3)c(F)c2)C(=O)O1 | inactive: -0.69 | inactive: 1.13 | inactive: -0.724
CCOC(=O)Nc1ccc2c(c1)N(C(=O)CCN(CC)CC)c1ccccc1S2 [etacizin] | inactive: -0.932 | inactive: 2.47 | inactive: 0.782
CC[C@H](C)[C@@H]1NC(=O)[C@H](CCC(N)=O)NC(=O)[C@H](CC(N)=O)NC(=O)[C@H](CO)NC(=O)[C@H](CC(N)=O)NC(=O)[C@@H](N)CSSC[C@@H](C(=O)O)NC1=O | inactive: 0.015 | inactive: 0.248 | inactive: 3.37
Cc1cc(-c2nc3cc(F)ccc3s2)ccc1NC(=O)[C@@H](N)CCCCN | – | inactive: -1.22 | –
Cc1cc(-c2nc3cc(F)ccc3s2)ccc1NC(=O)[C@@H](N)CCCCN [Phortress] | inactive: 1.53 | inactive: -2.68 | inactive: 0.281
CCn1c(=O)c2c(nc(N[C@@H]3CCC[C@H]3O)n2Cc2ccc(OC)c(Br)c2)n(CCO)c1=O [dasantafil] | inactive: -0.0763 | inactive: -0.111 | inactive: -0.844
CCc1ncnc2cc(OC)c(OC)cc12 | inactive: -0.717 | inactive: -1.42 | inactive: 0.108
c1ccc(OCCNC2CCN(c3nc4ccccc4s3)CC2)cc1 | inactive: -2.92 | inactive: -0.232 | inactive: 0.288
COc1cccc(OCC2CNCCO2)c1 (centres undefined) | inactive: 2.98 | inactive: 3.1 | inactive: 0.528
COc1cccc([C@@H](Oc2ccc3c(cnn3-c3ccc(F)cc3)c2)[C@H](C)NC(=O)C(F)(F)F)c1 | inactive: -0.512 | inactive: -0.413 | inactive: 0.372
O=Cc1c(O)ccc2cccc(O)c12 | inactive: 0.0269 | inactive: -1.75 | inactive: -1.53

SMILES | TEAD-luciferase reporter activity (compound concentration: 200 nM) | TEAD-luciferase reporter activity (compound concentration: 2 uM) | TEAD-luciferase reporter activity (compound concentration: 10 uM)
CCC(=O)c1ccc2c(c1)N(CC(C)N(C)C)c1ccccc1S2 (centres undefined) [Propiomazine] | inactive: 0.0994 | inactive: -1.43 | inactive: 4.05
CCOCCn1c(N2CCCN(C)CC2)nc2ccccc21 [emedastine difumarate] | inactive: -1.49 | inactive: -0.716 | inactive: -0.0958
O=C(O)C(Cl)c1ccc(C2CCCCC2)c(Cl)c1 (centres undefined) [fenclorac] | inactive: -0.782 | inactive: -1.1 | inactive: 0.62
C[C@@H]1C[C@H]2[C@@H]3CCC4=CC(=O)C=C[C@]4(C)[C@@]3(Cl)[C@@H](O)C[C@]2(C)[C@@]1(OC(=O)c1ccco1)C(=O)CCl (single isomer, unassigned; ent-2) [mometasone furoate stent, Intersect ENT-2] | inactive: -1.03 | – | inactive: 3.67
CCCN1CC(c2ccc(S(C)(=O)=O)cc2)=C(c2ccc(C)cc2)C1=O [Imrecoxib] | inactive: -1.7 | inactive: -0.404 | inactive: -1.28
COC(=O)[C@H](C)NP(=O)(OCC1C=C[C@H](n2cnc3c(N)ncnc32)O1)Oc1ccccc1 (some centres undefined) | inactive: -0.816 | inactive: -0.434 | inactive: 1.95
COC(=O)C1=C(C)NC(C)=C(C(=O)OCCN2CCN(C)CC2)C1c1cccc([N+](=O)[O-])c1 (centres undefined) | inactive: -1.43 | inactive: -2.02 | inactive: 3
NC(=O)CN1C=CCC(C(N)=O)=C1 [Caricotamide] | inactive: -2.54 | inactive: 1.4 | inactive: -0.623
Cc1ccc(/C=C/C(=O)NCCCCN2CCN(C(c3ccccc3)c3ccccc3)CC2)cn1 | inactive: 3.09 | inactive: 0.435 | inactive: 4.49
CCCCCCCCCCCCCCCC(=O)OCCC1CCN(CCCN2c3ccccc3Sc3ccc(S(=O)(=O)N(C)C)cc32)CC1 [pipotiazine palmitate] | inactive: 0.0871 | inactive: 4.03 | inactive: -0.666
CCCCCCCCCCCCCCCC(=O)OCCC1CCN(CCCN2c3ccccc3Sc3ccc(S(=O)(=O)N(C)C)cc32)CC1 [Pipotiazine Palmitate] | – | inactive: -1.21 | –
CCO | – | inactive: -0.0634 | inactive: -0.849
COc1cc(N2CCC(N3CCN(C)CC3)CC2)ccc1Nc1ncc(Cl)c(Nc2ccccc2P(C)(C)=O)n1 [Brigatinib] | inactive: -0.828 | inactive: -2.16 | inactive: -0.239
CCCOc1ccc(S(=O)(=O)N2CCN(CCO)CC2)cc1-c1nc2c(CCC)cn(CC)c2c(=O)[nH]1 [mirodenafil] | inactive: 0.977 | inactive: -0.849 | inactive: -0.0304
COC1=Cc2ccccc2/C(=C\C(=O)O)c2ccsc21 | inactive: -0.0249 | inactive: -0.122 | inactive: -0.697
CCCCCC(O)c1ccc(N2C(=O)CC[C@@H]2COCc2ccc(C(=O)OC(C)C)s2)cc1 (some centres undefined) [simenepag isopropyl] | inactive: 1.17 | inactive: 1.35 | inactive: -0.0253
CC(=O)C1=CCC2C3CC=C4C[C@@H](O)CC[C@]4(C)C3CC[C@]12C (some centres undefined) | inactive: -1.55 | inactive: -0.762 | inactive: 0.933
C[C@@H]1CN[C@@H](C2CC2)C(=O)N(C)[C@H](C)C(=O)N[C@H](Cc2ccc(F)cc2)C(=O)NCCCc2ccccc2O1 | inactive: 0.0508 | inactive: -0.16 | inactive: 1.91
COC(=O)C1=C(CF)NC(C)=C(C(=O)OC(C)C)C1c1c(F)ccc(Cl)c1C(F)(F)F (centres undefined) | inactive: 1.24 | inactive: -0.262 | inactive: -1.42
C=C1CC[C@H](O)C/C1=C/C=C1\CCC[C@]2(C)[C@@H]([C@H](C)/C=C/[C@H](C)C(C)C)CC[C@@H]12 | inactive: -0.204 | – | inactive: 0.652
C=C1CC[C@H](O)C/C1=C/C=C1\CCC[C@]2(C)[C@@H]([C@H](C)/C=C/[C@H](C)C(C)C)CC[C@@H]12 [Ergocalciferol] | – | inactive: -1.47 | –
CCCCCN(C(=O)NC)c1ccc2nc(CCCC)n(Cc3ccc(NC(=O)c4c(Cl)ccc(Cl)c4C(=O)O)cc3)c2c1 | inactive: -0.857 | inactive: -1.94 | inactive: -0.515
CCCCCCCCN(C)CC(P(=O)(O)O)P(=O)(O)O | inactive: -0.436 | inactive: -0.621 | inactive: -0.84
O=c1[nH]c(=O)n(Cc2ccc(OC/C=C/COc3ccc(Cn4oc(=O)[nH]c4=O)cc3)cc2)o1 | inactive: -1.81 | inactive: -0.294 | inactive: -0.107
NCC(=O)N1Cc2ccccc2CC2(CCCCN2CC2CCOCC2)C1 (centres undefined) | inactive: -1.49 | – | inactive: -1.08
CN(C)c1cc(CNCC(C)(C)C)c(O)c2c1C[C@H]1C[C@H]3[C@H](N(C)C)C(O)=C(C(N)=O)C(=O)[C@@]3(O)C(O)=C1C2=O [omadacycline] | inactive: 0.00621 | inactive: -1.01 | inactive: -0.941

Reference: the supplement of paper PMC10735217
